In patent US11511028B2, “Extracorporeal drug removal for intravascular triggered drug delivery systems” (MUSC Foundation for Research Development, priority 2018, dated 2022):

Assay: In vitro filtration of unencapsulated drug in PBS through activated carbon filter
Conditions: for Filtration efficacy: unencapsulated drug in PBS, filter filled with 175 mg carbon pellets, n=3

Structure (SMILES): COc1cccc2c1C(=O)c1c(O)c3c(c(O)c1C2=O)C[C@@](O)(C(=O)CO)C[C@@H]3O[C@H]1C[C@H](N)[C@H](O)[C@H](C)O1 [doxorubicin]
- Filtration efficacy (flow rate 350 ul/min): 90%

Structure (SMILES): CC(=O)[C@]1(O)Cc2c(O)c3c(c(O)c2[C@@H](O[C@H]2C[C@H](N)[C@H](O)[C@H](C)O2)C1)C(=O)c1ccccc1C3=O [idarubicin]
- Filtration efficacy (flow rate 350 ul/min): 95%
- Filtration efficacy (flow rate 520 ul/min): 85%
- Filter efficacy at the examined flow rates (flow rates 350, 410 and 520 ul/min, PBS): 85-95%
